This experiment is described as follows: qHTS Assay to Find Inhibitors of Chronic Active B-Cell Receptor Signaling. The note with it: ABC-DLBCL IkBa-CBG/CBR reporter, luminescence ratio (green luciferase fused to IkBa over red control in TMD8 lymphoma cells), 4 h. In a few lines: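 Compounds up to 46 uM were incubated four hours with TMD8 cells whose green CBG68 luciferase is fused to IkappaBalpha; red CBR luminescence normalised the signal, and concentration-effect curves were fitted to fusion, red and ratio data.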
Background: In qHTS, concentration-response curves come from the screen itself.

Where [1] appears, read: measured here: CBR red luminescence, cell number.
[2] abbreviates: measured here: IkBa-CBG green luminescence.

Molecules are shown by their SMILES. This is one part of the list. Shown are side measurements of this screen, not its main read-out; they come without a call. Compounds called inactive in the main read-out are mostly missing here. Words in brackets tell the shape of the fitted curve; partial curves, single points and poor fits give uncertain potencies.

In general, AC50 refers to the concentration at which the activity in the assay is half-maximal. For the compound `O=C(N/N=C/c1c(O)n(C2CCCCC2)c(=S)[nH]c1=O)c1ccccc1`, the AC50 under setting [1] is 0.794 µM [falling, full curve].

For `C[C@@H]1C[C@H]2OC(=O)C3(CO3)[C@H]2[C@H](O)[C@]2(C)C(=O)C3OC3[C@@H]12` (stereo partly drawn), the AC50 was 3.98 µM [rising, partial curve, poor fit] under setting [1] and 0.501 µM [falling, full curve] under setting [2]. As to `C=C1[C@@H](C)[C@H]2[C@H](Cc3ccccc3)NC(=O)[C@]23OC(=O)/C=C/[C@H](O)CCC[C@@H](C)C/C=C/[C@H]3[C@@H]1O`, the half-maximal activity concentration (AC50) under setting [1] is 12.6 µM [rising, partial curve, poor fit]. With `O=c1c2ccccc2nc(/C=C\c2ccccc2[N+](=O)[O-])n1-c1ccccc1O`, under setting [1], the AC50 was 14.1 µM [falling, single point].

Take `Cc1ccccc1-n1c(O)c(/C=C2/C(c3ccccc3)=Nc3ccccc32)c(=O)[nH]c1=O`: the AC50 under setting [1] is 11.6 µM [falling, partial curve, poor fit]. For the compound `CCN(CC)C(=O)C1CCCN(c2ncnc3c2cnn3-c2cccc(C)c2)C1` (stereo not drawn), under setting [1], the AC50 is 14.1 µM [falling, partial curve, poor fit]. On the same count and under the same terms, the same measure for `CN1CCC(O)(c2ccccc2)C2CCCC21` (stereo not drawn): 16.4 µM [falling, single point]. The same measure, in the same setting: the same measure for `CCCCn1c(O)c(C(CC)=NCCN2CCOCC2)c(=O)[nH]c1=O`: 29.1 µM [falling, single point]; for `Cn1cnc([N+](=O)[O-])c1Sc1ccc([N+](=O)[O-])cc1`: 25.1 µM [falling, single point]. The same measure, in the same setting: under `Cc1cc2ccccn2c1C(C[N+](=O)[O-])c1c(F)cccc1Cl` (stereo not drawn) stands 12.6 µM [falling, partial curve, poor fit]; under `CCC(=NCc1ccco1)c1c(O)n(Cc2ccccc2)c(=O)[nH]c1=O`, 25.1 µM [falling, single point]; under `c1ccc(CN2CCNCC2)nc1`, 11.2 µM [rising, single point]. In the case of `COc1ccccc1CNC(=O)C(NS(=O)(=O)c1ccc2c(c1)oc(=O)n2C)C(C)C` (stereo not drawn), the AC50 under setting [1] is 0.146 µM [rising, full curve]. `Cc1cc(C)cc(N2C(=O)NC(=O)/C(=C\C=C\c3ccco3)C2=O)c1`: the AC50 is 29.1 µM [rising, single point] under setting [1] and 20.6 µM [falling, single point] under setting [2]. Consider `O=C(Cn1cnc2sc3c(c2c1=O)CCCC3)NCCCC(=O)N1CCC2(CC1)OCCO2`, for which, under setting [1], the AC50 was 2.59 µM [falling, partial curve]. Same read-out and setting: the same measure for `CCc1ccc(CN2CCN(Cc3ccc(SC)cc3)CC2)cc1`: 35.5 µM [rising, single point]. Regarding `O=C(Nc1ccc2c(c1)OCCO2)c1cccn(Cc2ccccc2)c1=O`, the AC50 by setting is: under setting [1], 17.8 µM [falling, single point]; under setting [2], 2.51 µM [rising, full curve, poor fit]. In the case of `COc1cc2c3c(c1OC)-c1cc(O)ccc1CC3NCC2` (stereo not drawn), the AC50 under setting [1] was 1.84 µM [rising, partial curve, poor fit]. For the compound `CCOC(=O)c1c(NC(NC(=O)CF)C(Cl)(Cl)Cl)sc2c1CCCC2` (stereo not drawn), under setting [1], the AC50 was 29.1 µM [falling, single point]. On the same count and under the same terms, under `CCOC(=O)C1=C(C)OC(N)=C(C(=O)OCC)[C@@]12C(=O)N(CC(N)=O)c1ccccc12` stands 10.3 µM [rising, partial curve, poor fit]; under `CN1CCc2nc(SCc3cccc(Br)c3)c(C#N)cc2C1`, 35.5 µM [falling, single point]. On the same count and under the same terms, the same measure for `OC(Cc1ccccc1)(c1ccccc1)C1CN2CCC1CC2` (stereo not drawn): 10.3 µM [falling, single point]; for `Cc1ccc(C)c(NC(=O)CSc2nnc([C@@H](N)Cc3c[nH]c4ccccc34)o2)c1`: 14.1 µM [falling, partial curve, poor fit]; for `O=c1c2ccccc2nc(/C=C/c2ccc(O)c(O)c2)n1-c1ccccc1`: 14.1 µM [falling, partial curve].

For `COC(=O)C1=C(c2ccc(OC(F)(F)F)cc2)C[C@@H]2CC[C@H]1N2C(=O)NCc1cc(C)oc1C(F)(F)F`, the AC50 under setting [1] was 29.1 µM [falling, single point].

Regarding `O=C(O)c1cccc2c1NC(C(=O)O)C1CC(Sc3ccccc3[N+](=O)[O-])C(Cl)C21` (stereo not drawn), the AC50 under setting [1] is 23.1 µM [falling, single point]. Consider `Clc1ccc(C(OCCN2CCCCC2)c2ccccc2)cc1` (stereo not drawn), for which the AC50 under setting [1] was 29.1 µM [falling, single point]. Still for that read-out and setting: the same measure for `O=C(NC1CN2CCC1CC2)c1cc(Cl)c([N+](=O)[O-])c2nc[nH]c12` (stereo not drawn): 23.1 µM [falling, single point]; for `O=C(O)C1(c2ccc(Cl)cc2)CCC1`: 2.59 µM [falling, single point]. Regarding `O=c1[nH]c(=S)n(Cc2ccc(F)cc2)c(O)c1C=NCC1CCCO1` (stereo not drawn), under setting [1], the AC50 is 0.82 µM [falling, full curve, poor fit]. On the same count and under the same terms, the same measure for `COc1ccc(CC2(CCc3ccccn3)C(=O)NC(=O)N(c3ccccc3C)C2=O)cc1OC` (stereo not drawn): 35.5 µM [rising, single point]; for `Cc1cccc(N2C(=O)NC(=O)/C(=C\c3cnn(-c4ccccc4)c3)C2=O)c1`: 11.2 µM [rising, partial curve, poor fit]; for `N#Cc1c(Cl)nc(Cl)c2c1CCN(Cc1ccccc1)C2`: 3.66 µM [falling, full curve]. On to `C=CCN1C(=O)NC(=O)/C(=C/c2ccc(OC)c(COc3ccc(NC(C)=O)cc3)c2)C1=O`, for which the AC50 under setting [1] is 12.6 µM [rising, single point]. On the same count and under the same terms, the same measure for `CC1CC(C)CN(CC(=O)c2ccc(OC(F)F)cc2)C1` (stereo not drawn): 32.6 µM [falling, single point]. The same measure, in the same setting: the same measure for `CC(Cc1ccccc1)NCCC(c1ccccc1)c1ccccc1` (stereo not drawn): 29.1 µM [falling, single point]. Turning to `CC/C(=C\C=C\[C@@H]1C=C[C@@H]2CCC[C@H]2[C@@H]1C(=O)c1ccc[nH]1)[C@@H]1O[C@@H]([C@@H](C)C(=O)O)CC[C@@H]1C`, the half-maximal activity concentration (AC50) was 5.17 µM [falling, partial curve] under setting [1] and 11.2 µM [rising, partial curve] under setting [2]. Consider `C[C@]12CC[C@H](O)C[C@H]1CC[C@@H]1[C@@H]2C[C@@H](O)[C@]2(C)[C@@H](C3=CC(=O)OC3)CC[C@]12O`, for which, under setting [1], the AC50 was 7.31 µM [falling, partial curve, poor fit].

For the compound `O=Cc1cn(Cc2cccc(F)c2)c2ccccc12`, the AC50 under setting [2] was 8.2 µM [falling, partial curve, poor fit]. In the case of `CCc1ccc(N2C(=O)Nc3ccccc3C2(O)C(=O)N2CCN(c3ccccn3)CC2)cc1` (stereo not drawn), the AC50 under setting [1] was 11.2 µM [falling, partial curve, poor fit]. For `O=C(NCCc1ccc(F)cc1)c1coc(=O)c(Br)c1`, the AC50 under setting [1] is 35.5 µM [falling, single point]. Still for that read-out and setting: under `CCOc1ccccc1NC(=O)c1c(NCc2cccs2)sc2c1CCCCC2` stands 14.1 µM [rising, partial curve, poor fit]; under `O=C(CSC1c2ccccc2-c2ccccc21)N/N=C/c1ccccc1O`, 32.6 µM [falling, single point]; under `CCc1ccc(-c2cc(C)no2)cc1S(=O)(=O)Nc1ccccn1`, 6.31 µM [rising, full curve, poor fit]. Same read-out and setting: under `CCC(C)NC(=O)CCC(=O)OC1O[C@H]2OC3(C)CC[C@H]4[C@H](C)CCC(C1C)C24OO3` (stereo partly drawn) stands 8.91 µM [rising, partial curve, poor fit]. Same read-out and setting: under `CC(NCc1ccc(Cl)c(Cl)c1)C(O)c1ccccc1` (stereo not drawn) stands 0.517 µM [rising, partial curve, poor fit]. As for `C[C@]12CC[C@H](N)CC1=CCC1C2CC[C@@]2(C)C1CC[C@@H]2O` (stereo partly drawn), the AC50 under setting [1] was 29.1 µM [falling, single point]. The same measure, in the same setting: under `CC(=O)Nc1ccccc1C(=O)OCC(=O)c1ccccc1Cl` stands 4.61 µM [rising, partial curve, poor fit].

Regarding `COc1cc(/C=C2/C(=O)NC(=O)N(c3ccc(C)cc3)C2=O)cc(OC)c1OC`, under setting [1], the AC50 is 0.501 µM [rising, partial curve, poor fit]. With `COCCNC(=O)c1c(N)n(Cc2ccco2)c2nc3ccccc3nc12`, under setting [1], the AC50 is 0.316 µM [falling, full curve, poor fit]. The same measure, in the same setting: the same measure for `COc1ccccc1OCC#CCN1CCCC(C)C1` (stereo not drawn): 11.2 µM [rising, partial curve, poor fit]; for `CCOc1ccc(-c2cc(C)[n+](CCN(CC)CC)c(-c3ccc(OCC)cc3)c2)cc1`: 15.8 µM [falling, single point]. On to `COC(=O)C1=C(N)Oc2c(c(=O)oc3ccccc23)C1c1cccnc1` (stereo not drawn), for which, under setting [1], the AC50 was 1.84 µM [falling, full curve, poor fit].

As for `CCNC(=O)[C@H]1O[C@@H](n2cnc3c(N)ncnc32)[C@H](O)[C@@H]1O`, the AC50 by setting is: under setting [1], 0.794 µM [rising, full curve, poor fit]; under setting [2], 0.112 µM [falling, full curve, poor fit].

For the compound `CCCCC/C=C\C/C=C\C/C=C\C/C=C\CCCC(=O)Nc1ccc(O)cc1`, the AC50 under setting [1] is 2.24 µM [rising, partial curve, poor fit].

On to `COC(=O)C1=C(c2ccc(OC(F)(F)F)cc2)C[C@@H]2CC[C@H]1N2C(=O)NCCCOC(C)C`, for which the AC50 under setting [1] is 6.51 µM [rising, single point]. For the compound `COc1cccc(NP(=O)(Oc2ccc(Cl)cc2)Oc2ccc(Cl)cc2)c1`, the AC50 under setting [1] is 14.6 µM [falling, partial curve].

As to `CN(C)c1ccc(/C=C/C=C/c2sc3ccccc3[n+]2C)cc1`, under setting [1], the AC50 is 10 µM [falling, partial curve, poor fit].

(Values after PubChem BioAssay AID493014 (National Center for Advancing Translational Sciences (NCATS), 2011).)
